From patent US20160279215A1, “NOVEL PEPTIDES AND COMBINATION OF PEPTIDES FOR USE IN IMMUNOTHERAPY AGAINST VARIOUS TUMORS” (immatics biotechnologies GmbH, priority 2015, published 2016)

Test: Identification and label-free relative LC-MS quantitation of HLA-presented peptides on tumor and normal tissue samples (XPRESIDENT presentation profiles)
Design: species or system human
Conditions: for Entities of particular interest: entities where the peptide was over-presented on cancer samples compared to normal tissues; for Additional entities of particular interest (presentation of selected peptides across entities): tumor entities on which the HLA-presented peptide was found, entity abbreviations defined in the title of Table 4B
[1] = FIG. 1E-J and 7A-C, analyses of more than 320 normal tissue samples and 462 cancer samples
[2] = FIG. 1A-D, analyses of more than 170 normal tissue samples and 376 cancer samples

| Substance | Entities of particular interest | Additional entities of particular interest (presentation of selected peptides across entities) | further results |
| --- | --- | --- | --- |
| 83 (GLLENSPHL; listed as Homo sapiens) [compound 83] | NSCLC, OC | BRCA, MEL, AML, NHL | – |
| SEQ ID NO.: 156: peptide found in CYSLTR1 (gene looked up) (VILTSSPFL; listed as Homo sapiens) | – | – | cancer tissues where the peptide was found to be presented [1]: 11; normal tissues where the peptide was found to be presented [1]: 3 |
| 236 (KMSELQTYV; listed as Homo sapiens) [compound 236] | GB, NSCLC, HCC, OC, MEL, CRC, PC | GC, BPH, CLL, OSCAR, SCLC, UBC, UTC, BRCA, GBC_CCC, RCC, AML, NHL | – |
| 151 (DISKRIQSL; listed as Homo sapiens) [compound 151] | – | NSCLC | – |
| 273 (SLNKQIETV; listed as Homo sapiens) [compound 273] | NSCLC, OC | AML | – |
| 193 (ALFHMNILL; listed as Homo sapiens) [compound 193] | – | NSCLC | – |
| 175 (SLLDLVQSL; listed as Homo sapiens) [compound 175] | PC, OC | BRCA, AML, NHL | – |
| 109 (ILGSFELQL; listed as Homo sapiens) [compound 109] | – | BPH | – |
| 53 (AQHLSTLLL; listed as Homo sapiens) [compound 53] | GC, NSCLC | SCLC, GBC_CCC | – |
| 146 (VVAAHLAGA; listed as Homo sapiens) [compound 146] | NSCLC, OSCAR, OC | GC, MEL | – |
| 254 (ALGDKFLLRV; listed as Homo sapiens) [compound 254] | NSCLC, HCC, MEL, OC | NHL | – |
| 60 (YLFSQGLQGL; listed as Homo sapiens) [compound 60] | NSCLC, PC | – | – |
| 84 (FLLEREQLL; listed as Homo sapiens) [compound 84] | NSCLC, MEL, RCC, CRC, PC | CLL, UBC, UTC, BRCA, AML, NHL | – |
| 243 (GLAEFQENV; listed as Homo sapiens) [compound 243] | GB, NSCLC, HCC, OC, CRC, PC, OSCAR | CLL, SCLC, UBC, UTC, BRCA, GBC_CCC, MEL, AML, NHL | – |
| 227 (SEMEELPSV; listed as Homo sapiens) [compound 227] | – | HCC | – |
| 210: peptide found in SLC22A2 (gene looked up) (GLAGDNIYL; listed as Homo sapiens) [compound 210] | – | RCC | – |
| 86 (SLFSNIESV; listed as Homo sapiens) [compound 86] | NSCLC, BPH, CRC | SCLC, BRCA, GBC_CCC | – |
| 76 (FTAEFLEKV; listed as Homo sapiens) [compound 76] | NSCLC, PC, GB, OSCAR | UBC, MEL, AML, NHL | – |
| 17 (GLLPSAESIKL; listed as Homo sapiens) [compound 17] | NSCLC, BPH, OC, OSCAR | UBC | – |
| 134 (SLYKSFLQL; listed as Homo sapiens) [compound 134] | NSCLC, OSCAR, OC | – | – |

| Substance | Entities of particular interest | Additional entities of particular interest (presentation of selected peptides across entities) | further results |
| --- | --- | --- | --- |
| 139 (IILENIQSL; listed as Homo sapiens) [compound 139] | – | UBC, BRCA, AML | – |
| 26 (VLDGKVAVV; listed as Homo sapiens) [compound 26] | HCC, MEL, OC, GB, GC, NSCLC | CLL, UTC, NHL | – |
| 110 (QIQGQVSEV; listed as Homo sapiens) [compound 110] | – | BPH | – |
| 262 (LLLEAVWHL; listed as Homo sapiens) [compound 262] | NSCLC, CRC | BRCA, NHL | – |
| 54 (YLVPGLVAA; listed as Homo sapiens) [compound 54] | NSCLC, OC | – | – |
| 108 (FIANLPPELKA; listed as Homo sapiens) [compound 108] | – | BPH | – |
| 15 (GLPSATTTV; listed as Homo sapiens) [compound 15] | GC, NSCLC, OC, PC | UBC, UTC, MEL | – |
| 66 (AMFPDTIPRV; listed as Homo sapiens) [compound 66] | NSCLC, OC | – | – |
| 230 (KLLNMIFSI; listed as Homo sapiens) [compound 230] | – | BPH | – |
| 281 (LLLESDPKVYSL; listed as Homo sapiens) [compound 281] | PC, OC | OSCAR, SCLC | – |
| 255 (FLMKNSDLYGA; listed as Homo sapiens) [compound 255] | NSCLC, HCC, MEL, PC, OSCAR | UBC, UTC, GBC_CCC, AML, NHL | – |
| 71 (HMSGKLTNV; listed as Homo sapiens) [compound 71] | NSCLC, PC | – | – |
| 208 (HLNNDRNPL; listed as Homo sapiens) [compound 208] | – | BPH | – |
| 220 (ALSELERVL; listed as Homo sapiens) [compound 220] | – | BPH, UTC | – |
| SEQ ID NO.: 10: peptide found in KIF15 (gene looked up) (QLIEKNWLL; listed as Homo sapiens) | – | – | cancer tissue samples where the peptide was found to be presented [2]: 29; normal tissue samples where the peptide was found to be presented [2]: 1 |
| 166 (LLGDSSFFL; listed as Homo sapiens) [compound 166] | NSCLC, HCC, OSCAR, OC, PC | CLL, UBC, UTC, BRCA, GBC_CCC, MEL, AML | – |
| 256 (FLNDIFERI; listed as Homo sapiens) [compound 256] | NSCLC, HCC, CLL, OC | UTC, MEL, AML, NHL | – |
| 184 (ALDSTIAHL; listed as Homo sapiens) [compound 184] | NSCLC, OC | UTC, MEL | – |
| 88 (LLLPLELSLA; listed as Homo sapiens) [compound 88] | GB, NSCLC, PC | – | – |
| 9 (SLITGQDLLSV; listed as Homo sapiens) [compound 9] | NSCLC, BPH, OC, MEL, PC, OSCAR | SCLC, UBC, UTC, BRCA, GBC_CCC | – |
